Data taken from publication PMC11332348.
Results are given in words; binding and its absence hold for the method and conditions named. In cells and extracts the contact can be indirect. Some results given as binding are weak or reduced against the parent protein; the word gives no strength.

The chains behind the UniProt entries cited, without tags or fusion partners.
UniProt Q7Z434: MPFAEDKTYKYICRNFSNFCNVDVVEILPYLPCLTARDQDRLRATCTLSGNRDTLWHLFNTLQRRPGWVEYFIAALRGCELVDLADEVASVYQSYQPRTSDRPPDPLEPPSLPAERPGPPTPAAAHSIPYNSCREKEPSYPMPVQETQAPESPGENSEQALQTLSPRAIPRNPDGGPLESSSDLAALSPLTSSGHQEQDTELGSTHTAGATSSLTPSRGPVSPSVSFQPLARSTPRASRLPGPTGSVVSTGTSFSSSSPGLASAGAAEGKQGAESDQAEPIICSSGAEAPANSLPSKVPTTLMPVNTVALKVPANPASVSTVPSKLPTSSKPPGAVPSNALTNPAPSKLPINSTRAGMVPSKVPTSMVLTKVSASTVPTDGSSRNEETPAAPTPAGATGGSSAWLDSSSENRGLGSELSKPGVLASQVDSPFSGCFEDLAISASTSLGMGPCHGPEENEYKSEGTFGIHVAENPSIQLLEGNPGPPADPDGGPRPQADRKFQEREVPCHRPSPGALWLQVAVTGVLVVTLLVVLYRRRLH

Target: endogenous MAVS (mitochondrial antiviral signaling protein) (human (endogenous in A549)) (UniProt Q7Z434)
Test: co-IP; A549 transfected with EV or HA-σ3 for 12 h, then poly(I:C) for 12 h; lysate, protein G, immunoprecipitated with MAVS antibody; Western blot for RIG-I, MDA5, MAVS and HA-σ3

B1: endogenous MDA5 (melanoma differentiation-associated gene 5) (protein, UniProt Q9BYX4 1-1025)
chain: MSNGYSTDENFRYLISCFRARVKMYIQVEPVLDYLTFLPAEVKEQIQRTVATSGNMQAVELLLSTLEKGVWHLGWTREFVEALRRTGSPLAARYMNPELTDLPSPSFENAHDEYLQLLNLLQPTLVDKLLVRDVLDKCMEEELLTIEDRNRIAAAENNGNESGVRELLKRIVQKENWFSAFLNVLRQTGNNELVQELTGSDCSESNAEIENLSQVDGPQVEEQLLSTTVQPNLEKEVWGMENNSSESSFADSSVVSESDTSLAEGSVSCLDESLGHNSNMGSDSGTMGSDSDEENVAARASPEPELQLRPYQMEVAQPALEGKNIIICLPTGSGKTRVAVYIAKDHLDKKKKASEPGKVIVLVNKVLLVEQLFRKEFQPFLKKWYRVIGLSGDTQLKISFPEVVKSCDIIISTAQILENSLLNLENGEDAGVQLSDFSLIIIDECHHTNKEAVYNNIMRHYLMQKLKNNRLKKENKPVIPLPQILGLTASPGVGGATKQAKAEEHILKLCANLDAFTIKTVKENLDQLKNQIQEPCKKFAIADATREDPFKEKLLEIMTRIQTYCQMSPMSDFGTQPYEQWAIQMEKKAAKEGNRKERVCAEHLRKYNEALQINDTIRMIDAYTHLETFYNEEKDKKFAVIEDDSDEGGDDEYCDGDEDEDDLKKPLKLDETDRFLMTLFFENNKMLKRLAENPEYENEKLTKLRNTIMEQYTRTEESARGIIFTKTRQSAYALSQWITENEKFAEVGVKAHHLIGAGHSSEFKPMTQNEQKEVISKFRTGKINLLIATTVAEEGLDIKECNIVIRYGLVTNEIAMVQARGRARADESTYVLVAHSGSGVIEHETVNDFREKMMYKAIHCVQNMKPEEYAHKILELQMQSIMEKKMKTKRNIAKHYKNNPSLITFLCKNCSVLACSGEDIHVIEKMHHVNMTPEFKELYIVRENKALQKKCADYQINGEIICKCGQAWGTMMVHKGLDLPCLKIRNFVVVFKNNSTKKQYKKWVELPITFPNLDYSECCLFSDED
binding: binds
